Data on one molecule can be found in article PMC9839712.

These are yes or no findings as the source states them, for the method shown. Binding seen in cells or lysates may run through a third protein. Some binding calls cover weakened binding; strength is not graded here. Where a sequence is shown, tags or fusion partners need not be part of it.

This assay deals with T1, FLAG-LRIG3 (UniProt Q6UXM1).
T1 sequence: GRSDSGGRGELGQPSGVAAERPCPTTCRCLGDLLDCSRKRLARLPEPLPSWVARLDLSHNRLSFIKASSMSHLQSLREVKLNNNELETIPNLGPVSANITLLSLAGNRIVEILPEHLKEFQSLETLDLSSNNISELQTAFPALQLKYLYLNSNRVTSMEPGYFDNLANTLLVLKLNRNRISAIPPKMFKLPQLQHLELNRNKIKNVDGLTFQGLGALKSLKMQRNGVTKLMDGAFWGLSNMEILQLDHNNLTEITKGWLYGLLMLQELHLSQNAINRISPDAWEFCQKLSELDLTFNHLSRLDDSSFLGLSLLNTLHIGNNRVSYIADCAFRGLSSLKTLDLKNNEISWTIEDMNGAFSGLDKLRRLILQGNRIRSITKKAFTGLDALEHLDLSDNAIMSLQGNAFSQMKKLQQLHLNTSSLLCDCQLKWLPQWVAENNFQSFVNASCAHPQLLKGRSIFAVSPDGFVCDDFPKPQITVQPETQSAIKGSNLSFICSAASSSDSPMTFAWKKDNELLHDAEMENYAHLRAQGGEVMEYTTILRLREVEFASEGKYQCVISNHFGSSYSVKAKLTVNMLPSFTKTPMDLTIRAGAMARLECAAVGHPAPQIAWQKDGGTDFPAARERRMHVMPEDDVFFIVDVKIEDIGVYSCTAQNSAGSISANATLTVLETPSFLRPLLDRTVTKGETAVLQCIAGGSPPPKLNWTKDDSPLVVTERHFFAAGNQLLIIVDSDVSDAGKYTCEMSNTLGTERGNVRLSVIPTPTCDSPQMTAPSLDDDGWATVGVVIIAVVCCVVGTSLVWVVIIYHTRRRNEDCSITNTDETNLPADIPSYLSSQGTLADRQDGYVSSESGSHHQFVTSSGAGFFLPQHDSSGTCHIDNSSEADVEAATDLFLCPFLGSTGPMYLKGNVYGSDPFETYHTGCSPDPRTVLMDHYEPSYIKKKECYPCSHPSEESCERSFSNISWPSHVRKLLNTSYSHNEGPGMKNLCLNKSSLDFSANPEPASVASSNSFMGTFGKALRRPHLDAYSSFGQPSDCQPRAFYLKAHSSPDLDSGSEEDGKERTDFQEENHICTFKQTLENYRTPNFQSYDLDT
The assay can be described thus: co-IP; lysates of HEK293T co-transfected with pLVX-FLAG-LRIG3 and pcDNA3.1-His-NETO2 (full length or deletion mutants); precipitation with the FLAG-specific antibody and protein A/G, 4 °C, 12 h; normal mouse IgG or empty vector as control.

B1: His-NETO2-FL (protein, UniProt Q8BNJ6 23-525)
chain: IAVAQKTQDGQNIGIKHIPATQCGIWVRTSNGGHFASPNYPDSYPPNKECIYILEAAPRQRIELTFDERYYIEPSFECRFDHLEIRDGPFGFSPLIDRYCGMKSPALIRSTGRFMWIKFSSDEELEGLGFRAKYSFIPDPDFTYLGGILNPIPDCQFELSGADGIVRSSQVEQEEKTKPGQAVDCIWTIKATPKAKIYLRFLDYQMEHSNECKRNFVAVYDGSSAIENLKAKFCSTVANDVMLKTGVGVIRMWADEGSRLSRFRMLFTSFVEPPCTSSTFFCHSNMCINNSLVCNGVQNCAYPWDENHCKEKKKAGLFEQITKTHGTIIGITSGIVLVLLIISILVQVKQPRKKVMACKTAFNKTGFQEVFDPPHYELFSLREKEISADLADLSEELDNYQKLRRSSTASRCIHDHHCGSQASSVKQSRTNLSSMELPFRNDFAQPQPMKTFNSTFKKSSYTFKQAHECPEQALEDRVMEEIPCEIYVRGRDDSAQASISIDF
B1: the binding result is given as “binds”.
